One test deals with SPOP in CRC cells (UniProt O43791). Briefly: co-IP; CRC cells, control and SRC-1 knockout (Figure 5I); cell line not told.
For test [1], the target named is SPOP (source not told for the experiment) (UniProt O43791). The test is described as follows: co-IP; co-IP of SPOP, SRC-1 and PD-L1 (Figure 5C); cells and bait not told.
Test [2] shares this target. The test is described as follows: pull-down; GST pull-down with SRC-1, SPOP and PD-L1 together (Figure S4I); which protein was GST-fused is not told.
Test [3] has as its target steroid receptor coactivator-1 (SRC-1), endogenous in CMT93 cells (mouse (endogenous in CMT93)) (UniProt P70365). Briefly: co-IP; endogenous proteins of CMT93 and HCT116 cell lysates; indicated antibodies and Protein A/G Plus-Agarose at 4 °C overnight; blotted with specific antibodies.
The target of test [4] is steroid receptor coactivator-1 (SRC-1), endogenous in HCT116 cells (human (endogenous in HCT116)) (UniProt Q15788). The test is described as above.
Test [5] deals with speckle-type POZ protein (SPOP), tagged, expressed in 293T cells (UniProt O43791). Briefly: co-IP; 293T cells co-transfected with differently tagged proteins, with or without exogenous SRC-1 (Figure 5H).

Sequences of proteins named here, by UniProt entry; tags and fusion partners are left off. Residues count along the entry.
UniProt O43791: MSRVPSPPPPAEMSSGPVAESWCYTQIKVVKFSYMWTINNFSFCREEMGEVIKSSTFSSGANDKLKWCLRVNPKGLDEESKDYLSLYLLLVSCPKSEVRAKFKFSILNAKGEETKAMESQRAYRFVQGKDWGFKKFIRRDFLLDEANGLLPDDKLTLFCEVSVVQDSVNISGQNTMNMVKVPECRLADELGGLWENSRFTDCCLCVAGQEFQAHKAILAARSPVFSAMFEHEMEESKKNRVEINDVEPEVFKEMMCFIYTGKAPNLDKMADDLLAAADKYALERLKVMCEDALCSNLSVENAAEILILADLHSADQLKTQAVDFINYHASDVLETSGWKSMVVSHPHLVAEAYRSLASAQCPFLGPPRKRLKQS
UniProt P70365: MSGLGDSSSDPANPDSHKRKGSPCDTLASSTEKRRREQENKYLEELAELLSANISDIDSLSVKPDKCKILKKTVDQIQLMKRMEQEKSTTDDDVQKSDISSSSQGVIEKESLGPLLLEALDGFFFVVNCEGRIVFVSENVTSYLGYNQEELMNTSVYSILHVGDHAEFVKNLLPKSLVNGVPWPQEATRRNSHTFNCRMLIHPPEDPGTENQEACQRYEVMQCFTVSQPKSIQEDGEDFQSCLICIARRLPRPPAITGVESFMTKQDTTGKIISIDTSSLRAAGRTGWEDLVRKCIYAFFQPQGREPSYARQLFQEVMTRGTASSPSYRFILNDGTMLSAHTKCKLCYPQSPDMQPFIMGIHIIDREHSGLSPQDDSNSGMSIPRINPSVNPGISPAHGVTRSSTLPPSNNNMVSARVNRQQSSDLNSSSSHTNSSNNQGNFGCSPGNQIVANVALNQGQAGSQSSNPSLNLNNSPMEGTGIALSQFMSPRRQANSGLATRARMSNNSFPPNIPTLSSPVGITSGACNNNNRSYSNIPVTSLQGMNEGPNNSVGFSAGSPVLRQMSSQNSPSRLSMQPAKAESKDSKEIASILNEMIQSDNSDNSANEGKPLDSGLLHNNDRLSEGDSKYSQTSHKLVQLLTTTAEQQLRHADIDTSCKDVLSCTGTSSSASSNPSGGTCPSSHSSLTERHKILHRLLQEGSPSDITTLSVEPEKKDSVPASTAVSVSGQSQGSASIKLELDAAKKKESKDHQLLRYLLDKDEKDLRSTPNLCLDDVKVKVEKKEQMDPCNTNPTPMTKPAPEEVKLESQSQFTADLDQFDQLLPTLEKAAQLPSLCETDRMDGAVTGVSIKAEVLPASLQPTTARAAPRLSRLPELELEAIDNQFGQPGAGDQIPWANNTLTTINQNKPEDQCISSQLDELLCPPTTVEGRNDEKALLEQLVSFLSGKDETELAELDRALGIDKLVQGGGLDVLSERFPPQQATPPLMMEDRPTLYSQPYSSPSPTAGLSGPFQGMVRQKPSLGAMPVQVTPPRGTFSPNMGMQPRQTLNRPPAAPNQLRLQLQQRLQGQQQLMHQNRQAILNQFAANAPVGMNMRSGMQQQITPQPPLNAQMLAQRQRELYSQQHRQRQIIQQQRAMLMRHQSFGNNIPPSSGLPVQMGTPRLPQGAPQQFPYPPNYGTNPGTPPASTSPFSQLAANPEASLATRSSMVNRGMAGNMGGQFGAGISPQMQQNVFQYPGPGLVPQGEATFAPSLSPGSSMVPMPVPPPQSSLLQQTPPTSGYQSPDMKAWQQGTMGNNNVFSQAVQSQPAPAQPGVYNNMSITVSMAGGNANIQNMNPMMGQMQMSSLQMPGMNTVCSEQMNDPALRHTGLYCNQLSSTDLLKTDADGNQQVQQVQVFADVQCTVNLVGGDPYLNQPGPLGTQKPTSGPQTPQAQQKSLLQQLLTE
UniProt Q15788: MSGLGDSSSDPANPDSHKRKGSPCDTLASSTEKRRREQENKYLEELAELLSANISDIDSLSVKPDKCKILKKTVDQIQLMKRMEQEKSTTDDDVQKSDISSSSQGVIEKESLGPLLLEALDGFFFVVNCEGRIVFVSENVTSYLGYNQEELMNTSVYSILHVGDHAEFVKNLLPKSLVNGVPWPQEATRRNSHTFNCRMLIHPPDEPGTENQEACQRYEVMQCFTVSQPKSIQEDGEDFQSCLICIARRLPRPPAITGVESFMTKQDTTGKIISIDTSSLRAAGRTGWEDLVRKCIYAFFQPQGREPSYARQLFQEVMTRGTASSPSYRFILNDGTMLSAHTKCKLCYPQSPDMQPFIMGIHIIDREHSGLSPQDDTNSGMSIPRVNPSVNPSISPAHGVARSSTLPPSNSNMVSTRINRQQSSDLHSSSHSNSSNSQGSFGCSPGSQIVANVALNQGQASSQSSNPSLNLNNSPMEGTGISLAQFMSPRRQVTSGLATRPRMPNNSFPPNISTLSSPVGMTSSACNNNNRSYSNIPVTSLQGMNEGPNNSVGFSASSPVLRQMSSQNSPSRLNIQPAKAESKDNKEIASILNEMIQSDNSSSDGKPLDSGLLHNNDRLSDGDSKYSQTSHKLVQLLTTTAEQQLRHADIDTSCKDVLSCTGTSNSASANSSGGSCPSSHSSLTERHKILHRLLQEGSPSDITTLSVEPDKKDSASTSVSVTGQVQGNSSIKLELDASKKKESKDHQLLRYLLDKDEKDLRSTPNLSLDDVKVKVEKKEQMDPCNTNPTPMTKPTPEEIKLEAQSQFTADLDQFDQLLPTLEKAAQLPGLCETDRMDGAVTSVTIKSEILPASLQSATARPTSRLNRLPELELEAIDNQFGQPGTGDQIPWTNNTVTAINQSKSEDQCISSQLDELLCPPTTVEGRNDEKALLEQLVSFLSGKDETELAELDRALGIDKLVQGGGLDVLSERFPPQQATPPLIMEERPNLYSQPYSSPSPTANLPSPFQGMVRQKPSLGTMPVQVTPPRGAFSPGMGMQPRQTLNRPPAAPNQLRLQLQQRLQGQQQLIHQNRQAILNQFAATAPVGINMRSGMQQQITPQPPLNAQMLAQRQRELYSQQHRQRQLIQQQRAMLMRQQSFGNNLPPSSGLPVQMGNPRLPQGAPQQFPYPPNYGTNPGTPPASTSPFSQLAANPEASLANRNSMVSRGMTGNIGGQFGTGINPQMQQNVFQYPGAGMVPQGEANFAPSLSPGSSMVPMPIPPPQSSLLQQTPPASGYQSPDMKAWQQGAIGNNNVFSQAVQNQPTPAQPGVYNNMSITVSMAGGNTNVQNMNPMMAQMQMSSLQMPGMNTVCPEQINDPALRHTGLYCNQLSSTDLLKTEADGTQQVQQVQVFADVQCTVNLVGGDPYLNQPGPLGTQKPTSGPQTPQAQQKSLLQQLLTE
UniProt Q9NZQ7, residues 19-290: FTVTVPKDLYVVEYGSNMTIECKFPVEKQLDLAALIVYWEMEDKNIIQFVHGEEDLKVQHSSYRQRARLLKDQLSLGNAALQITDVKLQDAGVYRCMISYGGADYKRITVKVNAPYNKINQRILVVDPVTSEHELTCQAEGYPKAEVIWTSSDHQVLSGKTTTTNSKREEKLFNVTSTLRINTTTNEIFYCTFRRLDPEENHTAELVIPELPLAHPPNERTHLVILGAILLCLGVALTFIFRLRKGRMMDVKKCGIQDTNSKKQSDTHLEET
UniProt P42227: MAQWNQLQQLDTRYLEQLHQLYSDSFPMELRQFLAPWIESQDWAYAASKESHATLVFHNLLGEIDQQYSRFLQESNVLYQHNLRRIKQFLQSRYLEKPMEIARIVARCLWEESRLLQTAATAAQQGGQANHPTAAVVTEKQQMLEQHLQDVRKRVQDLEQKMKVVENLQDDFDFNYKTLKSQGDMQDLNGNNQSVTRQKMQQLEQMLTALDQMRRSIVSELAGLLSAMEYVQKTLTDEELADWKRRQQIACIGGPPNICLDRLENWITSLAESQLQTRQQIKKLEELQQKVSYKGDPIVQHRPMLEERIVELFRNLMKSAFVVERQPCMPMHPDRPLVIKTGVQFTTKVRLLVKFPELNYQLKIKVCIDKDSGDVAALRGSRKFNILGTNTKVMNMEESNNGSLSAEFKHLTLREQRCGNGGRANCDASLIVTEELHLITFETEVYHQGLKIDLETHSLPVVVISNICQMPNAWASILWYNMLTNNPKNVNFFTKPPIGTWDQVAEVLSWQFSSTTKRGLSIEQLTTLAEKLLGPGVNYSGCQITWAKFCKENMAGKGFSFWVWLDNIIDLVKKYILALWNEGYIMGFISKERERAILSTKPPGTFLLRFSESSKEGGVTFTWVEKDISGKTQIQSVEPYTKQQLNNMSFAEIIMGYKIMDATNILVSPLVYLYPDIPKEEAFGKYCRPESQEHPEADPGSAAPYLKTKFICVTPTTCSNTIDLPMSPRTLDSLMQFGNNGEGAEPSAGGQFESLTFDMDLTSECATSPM
UniProt P40763: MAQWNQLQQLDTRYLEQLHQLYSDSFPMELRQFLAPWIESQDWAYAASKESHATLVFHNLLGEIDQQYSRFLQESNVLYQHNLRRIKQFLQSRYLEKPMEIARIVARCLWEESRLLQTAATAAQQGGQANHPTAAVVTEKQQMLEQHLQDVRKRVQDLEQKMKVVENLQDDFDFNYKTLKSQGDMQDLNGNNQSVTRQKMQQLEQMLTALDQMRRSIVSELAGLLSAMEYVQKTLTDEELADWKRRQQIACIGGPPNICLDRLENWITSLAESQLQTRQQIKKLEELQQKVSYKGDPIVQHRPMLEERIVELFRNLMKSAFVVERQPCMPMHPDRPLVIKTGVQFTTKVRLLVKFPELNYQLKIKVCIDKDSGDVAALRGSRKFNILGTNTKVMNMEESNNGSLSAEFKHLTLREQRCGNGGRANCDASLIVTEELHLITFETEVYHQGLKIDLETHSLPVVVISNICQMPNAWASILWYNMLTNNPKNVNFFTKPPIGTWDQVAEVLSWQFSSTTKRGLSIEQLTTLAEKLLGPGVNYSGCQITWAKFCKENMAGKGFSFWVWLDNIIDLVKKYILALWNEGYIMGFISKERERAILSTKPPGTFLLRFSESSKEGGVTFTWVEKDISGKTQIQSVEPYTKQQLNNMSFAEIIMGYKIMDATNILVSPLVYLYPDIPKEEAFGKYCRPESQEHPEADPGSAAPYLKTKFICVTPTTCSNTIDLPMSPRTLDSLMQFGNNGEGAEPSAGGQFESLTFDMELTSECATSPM

Results are given in words; binding and its absence hold for the method and conditions named. In cells and extracts the contact can be indirect. Some binding calls cover weakened binding; strength is not graded here.

The results in this text go back to publication PMC11434141.

On to “PD-L1 in CRC cells (from UniProt Q9NZQ7 19-290)”, for which the binding entry in the test with SPOP in CRC cells is on record as “binds”. Consider “SRC-1 (source not told for the experiment) (from UniProt Q15788 1-1441)”, for which the binding entry in test [1] and in test [2] was “binds” each time. Regarding “STAT3, endogenous in CMT93 cells (from UniProt P42227 1-770)”, in test [3], the binding result is listed as “binds”. For “PD-L1 (source not told for the experiment) (from UniProt Q9NZQ7 19-290)”, the binding result in test [1] and in test [2] was “binds” in each case. As for “STAT3, endogenous in HCT116 cells (from UniProt P40763 1-770)”, in test [4], the binding entry is given as “binds”. For the molecule “SRC-1, tagged, expressed in 293T cells (from UniProt Q15788 1-1441)”, the binding result in test [5] was “binds”. Still for that read-out and setting: the same measure for “programmed death-ligand 1 (PD-L1), tagged, expressed in 293T cells (from UniProt Q9NZQ7 19-290)”: “binds”.

B1: IRF1, endogenous in HCT116 cells (protein, UniProt P10914 1-325)
chain: MPITRMRMRPWLEMQINSNQIPGLIWINKEEMIFQIPWKHAAKHGWDINKDACLFRSWAIHTGRYKAGEKEPDPKTWKANFRCAMNSLPDIEEVKDQSRNKGSSAVRVYRMLPPLTKNQRKERKSKSSRDAKSKAKRKSCGDSSPDTFSDGLSSSTLPDDHSSYTVPGYMQDLEVEQALTPALSPCAVSSTLPDWHIPVEVVPDSTSDLYNFQVSPMPSTSEATTDEDEEGKLPEDIMKLLEQSEWQPTNVDGKGYLLNEPGVQPTSVYGDFSCKEEPEIDSPGGDIGLSLQRVFTDLKNMDATWLDSLLTPVRLPSIQAIPCAP
With B1, in test [4], the binding result was “binds”.

B2: IRF1, endogenous in CMT93 cells (protein, UniProt P15314 1-329)
chain: MPITRMRMRPWLEMQINSNQIPGLIWINKEEMIFQIPWKHAAKHGWDINKDACLFRSWAIHTGRYKAGEKEPDPKTWKANFRCAMNSLPDIEEVKDQSRNKGSSAVRVYRMLPPLTRNQRKERKSKSSRDTKSKTKRKLCGDVSPDTFSDGLSSSTLPDDHSSYTTQGYLGQDLDMERDITPALSPCVVSSSLSEWHMQMDIIPDSTTDLYNLQVSPMPSTSEAATDEDEEGKIAEDLMKLFEQSEWQPTHIDGKGYLLNEPGTQLSSVYGDFSCKEEPEIDSPRGDIGIGIQHVFTEMKNMDSIMWMDSLLGNSVRLPPSIQAIPCAP
For the molecule B2, the binding result in test [3] is on record as “binds”.
